Measured values: article PMC4848882
These are yes or no findings as the source states them, for the method shown. For some of these results: Binding seen in cells or lysates may run through a third protein. Some binding calls cover weakened binding; strength is not graded here.

The chains behind the UniProt entries cited, without tags or fusion partners. Where a name states a change or a piece, a line headed by the entry shows the natural chain unless it says otherwise. A line that says so, or that is headed by a name, gives the form on record, which may keep a tag or linker. Residues count along the entry.
UniProt P61073: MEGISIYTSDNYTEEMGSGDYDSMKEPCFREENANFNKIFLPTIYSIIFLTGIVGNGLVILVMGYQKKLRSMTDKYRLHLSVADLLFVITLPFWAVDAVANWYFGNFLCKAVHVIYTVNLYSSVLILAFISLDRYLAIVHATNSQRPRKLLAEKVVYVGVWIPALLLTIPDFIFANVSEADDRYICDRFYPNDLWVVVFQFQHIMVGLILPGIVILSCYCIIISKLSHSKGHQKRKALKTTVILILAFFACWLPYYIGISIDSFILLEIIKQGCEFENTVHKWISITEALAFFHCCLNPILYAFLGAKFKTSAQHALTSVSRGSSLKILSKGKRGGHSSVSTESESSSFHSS
Flag-tagged human RTN3-RHD deletion mutant (pCMV-Flag-hRTN3-RHD) (O95197, residues 844-1032): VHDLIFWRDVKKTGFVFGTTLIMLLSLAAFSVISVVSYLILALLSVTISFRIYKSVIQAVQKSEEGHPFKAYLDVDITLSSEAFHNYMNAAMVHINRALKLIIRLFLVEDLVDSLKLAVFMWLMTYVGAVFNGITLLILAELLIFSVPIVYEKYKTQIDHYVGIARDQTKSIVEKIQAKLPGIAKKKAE
RTN3 fragment containing amino acid residues 86 to 236 (clone from a human fetal liver cDNA library in pACT2) (O95197, residues 882-1032): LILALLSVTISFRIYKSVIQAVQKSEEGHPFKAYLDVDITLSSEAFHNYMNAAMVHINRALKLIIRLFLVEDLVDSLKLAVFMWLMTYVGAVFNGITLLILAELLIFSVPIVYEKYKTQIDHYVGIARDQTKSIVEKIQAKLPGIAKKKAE
Flag-tagged full-length human RTN3 (pCMV-Flag-hRTN3) (O95197-3, form named): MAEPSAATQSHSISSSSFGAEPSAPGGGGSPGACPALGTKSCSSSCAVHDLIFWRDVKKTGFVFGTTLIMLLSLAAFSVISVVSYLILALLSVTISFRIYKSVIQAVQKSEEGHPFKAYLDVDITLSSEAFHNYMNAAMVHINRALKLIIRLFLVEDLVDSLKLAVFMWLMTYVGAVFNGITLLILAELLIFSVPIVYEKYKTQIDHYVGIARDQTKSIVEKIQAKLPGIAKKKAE

Key:
[1] = target: Myc-tagged human CXCR4 (pcDNA3.1-Myc-hCXCR4) (human) (UniProt P61073); experiment: co-IP; HEK293 cells co-transfected; lysis in RIPA buffer (25 mM Tris-HCl pH 7.5, 150 mM NaCl, 1% NP-40, 0.5% sodium deoxycholate); immunoprecipitation with anti-Myc agarose overnight at 4 °C, control IgG; immunoblot
[2] = target: Flag-tagged full-length human RTN3 (pCMV-Flag-hRTN3) (human) (UniProt O95197); experiment: co-IP; reverse co-IP: HEK293 cells co-transfected; lysis in RIPA buffer; immunoprecipitation with anti-Flag M2 affinity gel overnight at 4 °C, control IgG; immunoblot
[3] = target: human full-length CXCR4 fused to the GAL4 DNA-binding domain (pGBKT7-hCXCR4) (human) (UniProt P61073); experiment: two-hybrid; yeast AH109 with pGBKT7-hCXCR4 as bait; screen of a human fetal liver cDNA library in the GAL4 activation domain vector pACT2

Substance | binding [1] | further results
Flag-tagged human RTN3-RHD deletion mutant (pCMV-Flag-hRTN3-RHD) (from UniProt O95197-3 48-236) (domain or fragment) | binds | 
Flag-tagged full-length human RTN3 (pCMV-Flag-hRTN3) (from UniProt O95197-3 1-236) | binds | 
Myc-tagged human CXCR4 (pcDNA3.1-Myc-hCXCR4) (from UniProt P61073 1-352) (receptor) |  | binding [2]: binds
RTN3 fragment containing amino acid residues 86 to 236 (clone from a human fetal liver cDNA library in pACT2) (from UniProt O95197-3 86-236) (domain or fragment) |  | binding [3]: binds
